Reference: US8962845B2, “Pyrazole compounds” (National Health Research Institutes, priority 2011, dated 2015)
Some entries share one result that the patent states for a list of compounds.

The chains behind the UniProt entries cited, without tags or fusion partners.
UniProt P21554, whole entry: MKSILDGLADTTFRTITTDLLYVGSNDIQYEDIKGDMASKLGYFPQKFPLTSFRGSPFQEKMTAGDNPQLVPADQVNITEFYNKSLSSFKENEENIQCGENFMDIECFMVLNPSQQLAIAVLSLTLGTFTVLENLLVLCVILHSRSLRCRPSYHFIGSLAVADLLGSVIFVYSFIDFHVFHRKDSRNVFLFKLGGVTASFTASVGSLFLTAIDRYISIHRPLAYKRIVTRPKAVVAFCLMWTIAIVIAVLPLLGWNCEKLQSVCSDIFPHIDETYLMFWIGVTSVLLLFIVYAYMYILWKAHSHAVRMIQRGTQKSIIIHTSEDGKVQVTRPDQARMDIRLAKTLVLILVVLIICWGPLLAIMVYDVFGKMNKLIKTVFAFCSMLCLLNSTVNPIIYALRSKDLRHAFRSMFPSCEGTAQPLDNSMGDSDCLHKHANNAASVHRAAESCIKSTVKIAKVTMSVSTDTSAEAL

molecular target: T1, Human CB1 receptor (Homo sapiens, UniProt P21554); assay: DELFIA GTP-binding assay; format: biochemical; details: 20 nM CP55,940; HEK293 membranes; units given in the value
T1 construct: expressed in transfected cells

Compound | EC50 for inhibiting Eu-GTP binding (CP55,940-stimulated CB1 receptor activation)
CN/C(=N\C#N)NCc1c(C(=O)NN2CCCCC2)nn(-c2ccc(Cl)cc2Cl)c1-c1ccc(C#Cc2ccc(C(F)(F)F)cc2)s1 [Compound 24, (E)-4-((2-Cyano-3-methylguanidino)methyl)-1-(2,4-dichlorophenyl)-N-(piperidin-1-yl)-5-(5-((4-(trifluoromethyl)phenyl)ethynyl)thiophen-2-yl)-1H-pyrazole-3-carboxamide] | 0.001 µM and 10 µM
O=C(NN1CCCCC1)c1nn(-c2ccc(Cl)cc2Cl)c(-c2ccc(C#Cc3ccc(C(F)(F)F)cc3)s2)c1CNC1COC1 [Compound 93, 1-(2,4-Dichlorophenyl)-4-((oxetan-3-ylamino)methyl)-N-(piperidin-1-yl)-5-(5-((4-(trifluoromethyl)phenyl)ethynyl)thiophen-2-yl)-1H-pyrazole-3-carboxamide] | 0.001 µM and 10 µM
CNS(=O)(=O)NCc1c(C(=O)NN2CCCCC2)nn(-c2ccc(Cl)cc2Cl)c1-c1ccc(Cl)cc1 [Compound 130, 5-(4-Chlorophenyl)-1-(2,4-dichlorophenyl)-4-((N-methylsulfamoylamino)methyl)-N-(piperidin-1-yl)-1H-pyrazole-3-carboxamide] | 0.001 µM and 10 µM
CC(C)(C)NS(=O)(=O)NCc1c(C(=O)NN2CCCCC2)nn(-c2ccc(Cl)cc2Cl)c1-c1ccc(C#Cc2ccc(C(F)(F)F)cc2)s1 [Compound 30, 4-((N-tert-Butylsulfamoylamino)methyl)-1-(2,4-dichlorophenyl)-N-(piperidin-1-yl)-5-(5-((4-(trifluoromethyl)phenyl)ethynyl)thiophen-2-yl)-1H-pyrazole-3-carboxamide] | 0.001 µM and 10 µM
CC1CN(S(=O)(=O)NCc2c(C(=O)NN3CCCCC3)nn(-c3ccc(Cl)cc3Cl)c2-c2ccc(C#Cc3ccc(C(F)(F)F)cc3)s2)CC(C)O1 (stereo not drawn) [Compound 37] | 0.001 µM and 10 µM
O=C(NCc1c(C(=O)NN2CCCCC2)nn(-c2ccc(Cl)cc2Cl)c1-c1ccc(Cl)cc1)NC1CC1 [Compound 127, 5-(4-Chlorophenyl)-4-((3-cyclopropylureido)methyl)-1-(2,4-dichlorophenyl)-N-(piperidin-1-yl)-1H-pyrazole-3-carboxamide] | 0.001 µM and 10 µM
O=C(NN1CCCCC1)c1nn(-c2ccc(Cl)cc2Cl)c(-c2ccc(C#Cc3ccc(C(F)(F)F)cc3)s2)c1CN1CC(O)C1 [Compound 91, 1-(2,4-Dichlorophenyl)-4-((3-hydroxyazetidin-1-yl)methyl)-N-(piperidin-1-yl)-5-(5-((4-(trifluoromethyl)phenyl)ethynyl)thiophen-2-yl)-1H-pyrazole-3-carboxamide] | 0.001 µM and 10 µM
CCCC#Cc1ccc(-c2c(CNS(=O)(=O)C3CCCC3)c(C(=O)NN3CCCCC3)nn2-c2ccc(Cl)cc2Cl)s1 [Compound 66, 4-(Cyclopentanesulfonamidomethyl)-1-(2,4-dichlorophenyl)-5-(5-(pent-1-ynyl)thiophen-2-yl)-N-(piperidin-1-yl)-1H-pyrazole-3-carboxamide] | 0.001 µM and 10 µM
CCCC#Cc1ccc(-c2c(CNS(=O)(=O)N3CCCCC3)c(C(=O)NN3CCCCC3)nn2-c2ccc(Cl)cc2Cl)s1 [Compound 63, 1-(2,4-Dichlorophenyl)-5-(5-(pent-1-ynyl)thiophen-2-yl)-N-(piperidin-1-yl)-4-((piperidine-1-sulfonamido)methyl)-1H-pyrazole-3-carboxamide] | 0.001 µM and 10 µM
CNS(=O)(=O)NCc1c(C(=O)NN2CCCCC2)nn(-c2ccc(Cl)cc2Cl)c1-c1ccc(C#Cc2ccc(C(F)(F)F)cc2)s1 [Compound 28, 1-(2,4-Dichlorophenyl)-4-((N-methylsulfamoylamino)methyl)-N-(piperidin-1-yl)-5-(5-((4-(trifluoromethyl)phenyl)ethynyl)thiophen-2-yl)-1H-pyrazole-3-carboxamide] | 0.001 µM and 10 µM
O=C(NN1CCCCC1)c1nn(-c2ccc(Cl)cc2Cl)c(-c2ccc(Cl)cc2)c1CNS(=O)(=O)N1CCCC1 [Compound 119, 5-(4-Chlorophenyl)-1-(2,4-dichlorophenyl)-N-(piperidin-1-yl)-4-((pyrrolidine-1-sulfonamido)methyl)-1H-pyrazole-3-carboxamide] | 0.001 µM and 10 µM
N#C[C@H]1CCCN1Cc1c(C(=O)NN2CCCCC2)nn(-c2ccc(Cl)cc2Cl)c1-c1ccc(C#Cc2ccc(C(F)(F)F)cc2)s1 [Compound 103, 4-(((R)-2-Cyanopyrrolidin-1-yl)methyl)-1-(2,4-dichlorophenyl)-N-(piperidin-1-yl)-5-(5-((4-(trifluoromethyl)phenyl)ethynyl)thiophen-2-yl)-1H-pyrazole-3-carboxamide] | 0.001 µM and 10 µM
O=C(NN1CCCCC1)c1nn(-c2ccc(Cl)cc2Cl)c(-c2ccc(C#Cc3ccc(C(F)(F)F)cc3)s2)c1CNS(=O)(=O)N1CC[C@H](F)C1 [Compound 148, 1-(2,4-dichlorophenyl)-4-(((S)-3-fluoropyrrolidine-1-sulfonamido)methyl)-N-(piperidin-1-yl)-5-(5-((4-(trifluoromethyl)phenyl)ethynyl)thiophen-2-yl)-1H-pyrazole-3-carboxamide] | 0.001 µM and 10 µM
CS(=O)(=O)NCc1c(C(=O)NN2CCCCC2)nn(-c2ccc(Cl)cc2Cl)c1-c1ccc(C#Cc2ccc(C(F)(F)F)cc2)s1 [Compound 25, 1-(2,4-Dichlorophenyl)-4-(methylsulfonamidomethyl)-N-(piperidin-1-yl)-5-(5-((4-(trifluoromethyl)phenyl)ethynyl)thiophen-2-yl)-1H-pyrazole-3-carboxamide] | 0.001 µM and 10 µM
CCC(=O)NCc1c(C(=O)NN2CCCCC2)nn(-c2ccc(Cl)cc2Cl)c1-c1ccc(Cl)cc1 [Compound 128, 5-(4-Chlorophenyl)-1-(2,4-dichlorophenyl)-N-(piperidin-1-yl)-4-(propionamidomethyl)-1H-pyrazole-3-carboxamide] | 0.001 µM and 10 µM
CN(C)S(=O)(=O)NCc1c(C(=O)NN2CCCCC2)nn(-c2ccc(Cl)cc2Cl)c1-c1ccc(Cl)cc1 [Compound 129, 5-(4-Chlorophenyl)-1-(2,4-dichlorophenyl)-4-((N,N-dimethylsulfamoylamino)methyl)-N-(piperidin-1-yl)-1H-pyrazole-3-carboxamide] | 0.001 µM and 10 µM
O=C(NN1CCCCC1)c1nn(-c2ccc(Cl)cc2Cl)c(-c2ccc(Cl)cc2)c1CNS(=O)(=O)N1CCCCC1 [Compound 120, 5-(4-Chlorophenyl)-1-(2,4-dichlorophenyl)-N-(piperidin-1-yl)-4-((piperidine-1-sulfonamido)methyl)-1H-pyrazole-3-carboxamide] | 0.001 µM and 10 µM
O=C(NN1CCCCC1)c1nn(-c2ccc(Cl)cc2Cl)c(-c2ccc(C#CC3CCCC3)s2)c1CNS(=O)(=O)N1CCOCC1 [Compound 76, 5-(5-(Cyclopentylethynyl)thiophen-2-yl)-1-(2,4-dichlorophenyl)-4-((morpholine-4-sulfonamido)methyl)-N-(piperidin-1-yl)-1H-pyrazole-3-carboxamide] | 0.001 µM and 10 µM
C[C@@H](O)CNCc1c(C(=O)NN2CCCCC2)nn(-c2ccc(Cl)cc2Cl)c1-c1ccc(C#Cc2ccc(C(F)(F)F)cc2)s1 [Compound 99, 1-(2,4-Dichlorophenyl)-4-(((R)-2-hydroxypropylamino)methyl)-N-(piperidin-1-yl)-5-(5-((4-(trifluoromethyl)phenyl)ethynyl)thiophen-2-yl)-1H-pyrazole-3-carboxamide] | 0.001 µM and 10 µM
O=C(NN1CCCCC1)c1nn(-c2ccc(Cl)cc2Cl)c(-c2ccc(C#Cc3ccc(C(F)(F)F)cc3)s2)c1CNS(=O)(=O)N1CCOCC1 [Compound 35, 1-(2,4-Dichlorophenyl)-4-((morpholine-4-sulfonamido)methyl)-N-(piperidin-1-yl)-5-(5-((4-(trifluoromethyl)phenyl)ethynyl)thiophen-2-yl)-1H-pyrazole-3-carboxamide] | 0.001 µM and 10 µM
COC(=O)NCc1c(C(=O)NN2CCCCC2)nn(-c2ccc(Cl)cc2Cl)c1-c1ccc(C(F)(F)F)cc1 [Compound 141, Methyl(1-(2,4-dichlorophenyl)-3-(piperidin-1-ylcarbamoyl)-5-(4-(trifluoromethyl)phenyl)-1H-pyrazol-4-yl)methylcarbamate] | 0.001 µM and 10 µM
CN(C)S(=O)(=O)NCc1c(C(=O)NN2CCCCC2)nn(-c2ccc(Cl)cc2Cl)c1-c1ccc(C#Cc2ccc(C(F)(F)F)cc2)s1 [Compound 27, 1-(2,4-Dichlorophenyl)-4-((N,N-dimethylsulfamoylamino)methyl)-N-(piperidin-1-yl)-5-(5-((4-(trifluoromethyl)phenyl)ethynyl)thiophen-2-yl)-1H-pyrazole-3-carboxamide] | 0.001 µM and 10 µM
O=C(NN1CCCCC1)c1nn(-c2ccc(Cl)cc2Cl)c(-c2ccc(C#Cc3ccc(C(F)(F)F)cc3)s2)c1CN1CCS(=O)(=O)CC1 [Compound 87, 1-(2,4-Dichlorophenyl)-4-[(1,1-dioxidothiomorpholin-4-yl)methyl]-N-(piperidin-1-yl)-5-(5-{[4-(trifluoromethyl)phenyl]ethynyl}thiophen-2-yl)-1H-pyrazole-3-carboxamide] | 0.001 µM and 10 µM
O=C(NN1CCCCC1)c1nn(-c2ccc(Cl)cc2Cl)c(-c2ccc(C#Cc3ccc(Cl)cc3)s2)c1CNS(=O)(=O)NC1CC1 [Compound 57, 5-(5-((4-Chlorophenyl)ethynyl)thiophen-2-yl)-4-((N-cyclopropylsulfamoylamino)methyl)-1-(2,4-dichlorophenyl)-N-(piperidin-1-yl)-1H-pyrazole-3-carboxamide] | 0.001 µM and 10 µM
